Assay [1] has as its target T1, purified MCM3 protein (pGEX-6P-1-MCM3) (UniProt P25205).
T1 sequence: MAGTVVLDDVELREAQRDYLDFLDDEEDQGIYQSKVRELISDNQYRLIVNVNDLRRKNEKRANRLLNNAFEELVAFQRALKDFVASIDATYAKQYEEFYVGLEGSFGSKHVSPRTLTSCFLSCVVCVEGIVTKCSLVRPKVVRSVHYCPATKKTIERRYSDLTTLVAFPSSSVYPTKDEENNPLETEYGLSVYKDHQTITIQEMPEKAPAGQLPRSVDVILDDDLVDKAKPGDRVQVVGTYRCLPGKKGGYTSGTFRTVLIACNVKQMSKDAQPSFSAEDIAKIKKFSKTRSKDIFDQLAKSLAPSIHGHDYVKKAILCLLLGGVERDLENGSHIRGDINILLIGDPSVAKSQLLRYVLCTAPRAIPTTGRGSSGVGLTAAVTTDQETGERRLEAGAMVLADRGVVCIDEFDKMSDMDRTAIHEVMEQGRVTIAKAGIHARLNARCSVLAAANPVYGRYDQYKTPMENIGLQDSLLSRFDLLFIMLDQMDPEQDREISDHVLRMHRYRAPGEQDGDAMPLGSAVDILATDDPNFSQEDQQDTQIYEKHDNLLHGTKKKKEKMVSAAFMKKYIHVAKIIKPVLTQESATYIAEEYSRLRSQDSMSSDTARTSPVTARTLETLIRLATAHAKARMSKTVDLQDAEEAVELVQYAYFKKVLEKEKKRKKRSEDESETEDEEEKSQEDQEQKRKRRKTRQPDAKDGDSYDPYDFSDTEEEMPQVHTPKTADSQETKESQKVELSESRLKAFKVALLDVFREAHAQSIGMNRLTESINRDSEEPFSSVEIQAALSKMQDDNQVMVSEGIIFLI
Briefly: co-IP.

The chains behind the UniProt entries cited, without tags or fusion partners.
UniProt Q16665: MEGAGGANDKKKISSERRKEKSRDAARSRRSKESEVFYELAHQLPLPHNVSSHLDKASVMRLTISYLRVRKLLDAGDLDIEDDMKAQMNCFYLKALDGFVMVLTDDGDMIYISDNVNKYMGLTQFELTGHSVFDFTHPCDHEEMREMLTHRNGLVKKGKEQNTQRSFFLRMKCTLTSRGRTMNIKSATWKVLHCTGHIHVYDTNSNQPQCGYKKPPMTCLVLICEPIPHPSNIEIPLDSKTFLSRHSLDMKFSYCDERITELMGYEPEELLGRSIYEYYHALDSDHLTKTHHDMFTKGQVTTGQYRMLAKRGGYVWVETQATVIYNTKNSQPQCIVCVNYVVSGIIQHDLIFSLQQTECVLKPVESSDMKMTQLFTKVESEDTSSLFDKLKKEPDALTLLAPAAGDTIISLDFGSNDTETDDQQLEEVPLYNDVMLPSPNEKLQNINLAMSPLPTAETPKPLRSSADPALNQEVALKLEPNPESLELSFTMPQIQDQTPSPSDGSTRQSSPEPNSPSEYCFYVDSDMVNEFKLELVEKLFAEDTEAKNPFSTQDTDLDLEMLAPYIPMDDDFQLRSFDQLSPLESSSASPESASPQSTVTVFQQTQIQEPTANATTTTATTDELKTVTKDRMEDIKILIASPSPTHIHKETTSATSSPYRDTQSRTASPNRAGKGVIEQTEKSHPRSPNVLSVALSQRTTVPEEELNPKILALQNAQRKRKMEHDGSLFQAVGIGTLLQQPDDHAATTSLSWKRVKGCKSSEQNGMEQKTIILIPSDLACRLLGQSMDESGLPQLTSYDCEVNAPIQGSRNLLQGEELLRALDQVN

Assay [2] has as its target T2, minichromosome maintenance complex component 3 (MCM3) (human (endogenous in KYSE450 and KYSE410 ESCC cells)) (UniProt P25205).
T2 sequence: T1 sequence
Briefly: co-IP.

These are yes or no findings as the source states them, for the method shown. For some assays here: In cells and extracts the contact can be indirect. Some results given as binding are weak or reduced against the parent protein; the word gives no strength.

For “purified HIF-1α protein (pGEX-6P-1-HIF-1α) (from UniProt Q16665 1-826)”, in assay [1], the binding result is “binds”.

Consider “hypoxia-inducible factor 1α (HIF-1α) (from UniProt Q16665 1-826)”, for which the binding entry in assay [2] is listed as “binds”.

For the origin of these results see doi:10.1101/2023.01.28.526069.
